Values quoted from earlier work, collected in patent publication US9206100B2, “Route to synthetic analogues of Rocaglamide and Aglafoline using cascade transformations initiated by oxy-cope rearrangement of bis-alkynes” (The Florida State University Research Foundation, Inc., priority 2010, dated 2015).
Some entries share one result that the patent states for a list of compounds.

Tested on: variety of human cancer cell lines

Q: With `COc1ccc([C@@]23Oc4cc(OC)cc(OC)c4[C@]2(O)[C@H](O)[C@H](C(=O)N(C)C)[C@H]3c2ccccc2)cc1` [Rocaglamide] as the molecule, how does the “IC50 values, cytostatic and cytotoxic activity” value read?
A: Its value is 1.0 to 6.0 ng/mL.
